Measurements reported in PubChem BioAssay AID1224826 (NIAID, 2016)
Purpose: 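Genes that change LPS-induced Tnf promoter activity in mouse macrophages when knocked down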 (primary screen). System: RAW264.7 G9 macrophages from mouse bearing reporters for p65 (GFP) and the Tnf promoter (mCherry). Knock-down reagent: siRNA pool against mouse genes, 100 nM. Timing: 16 h of LPS stimulation, after 2 days of siRNA transfection. Conditions: bacterial lipopolysaccharide (Salmonella minnesota R595), 10 ng/ml. Read-out: 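Nuclear mCherry signal of the Tnf promoter reporter measured by imaging after background removal, scaled to each plate median and turned into robust z-scores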. Scale: Tnf reporter robust z-score: higher = stronger Tnf promoter reporter signal after LPS; Tnf reporter intensity: higher = stronger Tnf promoter reporter signal. Hit rule: 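a well counts as active at a score of -1.3 or below (Tlr4 knock-down control median) or above 3 (raised signal); controls and wells holding fewer than 50 cells are excluded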. Meaning of the calls: active = Tnf reporter clearly lowered or raised; inactive = no clear change in Tnf reporter.
In all, the deposit lists about 17,000 reagents; below is an unselected part. About 1,110 of them (6.6%) count as active. 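Active means lowered or raised reporter signal; replicate intensities are raw and not normalised per plate.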 The numbers tell different reagents against one gene apart.

target	reagent no.	Tnf reporter robust z-score	fewer than 50 cells in well	Tnf reporter intensity, replicate 1	Tnf reporter intensity, replicate 2	activity call
Tsn	1		fewer than 50 cells per well; well left out of calls	83.8	66.8	inactive
Klk1b9	1		fewer than 50 cells per well; well left out of calls	85.4	120	inactive
Tomm34	1		fewer than 50 cells per well; well left out of calls	39	50.4	inactive
Or8u3	1	-0.3	enough cells in well	174	130	inactive
Rps9	1	-0.87	enough cells in well	87.9	138	inactive
St3gal5	1	0.66	enough cells in well	326	275	inactive
Ing4	1	-0.21	enough cells in well	214	145	inactive
Ttc5	1	-0.85	enough cells in well	86.2	67.1	inactive
Krtap5-2	1		fewer than 50 cells per well; well left out of calls	257	60	inactive
Slc68a1	1	3.1	enough cells in well	320	140	active
Mlh1	1	-1.04	enough cells in well	181	124	inactive

Next part (3 carried over from the part before).
target	reagent no.	Tnf reporter robust z-score	fewer than 50 cells in well	Tnf reporter intensity, replicate 1	Tnf reporter intensity, replicate 2	activity call
Krtap5-2	1		fewer than 50 cells per well; well left out of calls	257	60	inactive
Slc68a1	1	3.1	enough cells in well	320	140	active
Mlh1	1	-1.04	enough cells in well	181	124	inactive
Polq	1	0.23	enough cells in well	141	138	inactive
E330018D03Rik (retired record)	1	-0.87	enough cells in well	135	46.9	inactive
Dlg3	1	-0.05	enough cells in well	195	177	inactive
Nelfcd	1	0.03	enough cells in well	122	91.7	inactive
Fcgr1	1	-0.86	enough cells in well	168	158	inactive
Tra2a	1	-0.91	enough cells in well	156	60.9	inactive
Tra2a	2	0.79	enough cells in well	211	241	inactive
Cradd	1	0.79	enough cells in well	296	259	inactive
Matcap2	1	-0.3	enough cells in well	201	129	inactive
Vmn1r71	1	0.38	enough cells in well	133	104	inactive
Rheb	1	-0.12	enough cells in well	318	182	inactive
Siglech	1	-0.41	enough cells in well	132	140	inactive
Sh3bgrl	1		fewer than 50 cells per well; well left out of calls	182	34.4	inactive
